Measurements from PubChem BioAssay AID504648 (National Center for Advancing Translational Sciences (NCATS), 2011).
Out of some 390,000 compounds screened, about 610 (0.16%) were called active. Inconclusive results, whose numbers are uncertain, are shown with a selection of clear calls. The call rests on the fitted dose curve; in most records, active means well fitted inhibition curve with a large enough effect; inconclusive means small, poorly fitted or top-dose-only effect, or effect the other way, or another doubt; inactive means no such curve, though single readings can be large or run the other way. A potency beside an inconclusive call is a rough fit, not a confirmed value.

Assay: Nrf2 qHTS screen for inhibitors: counterscreen for cytotoxicity
Details: A549 ARE-Fluc cells, CellTiter-Fluor viability, 18-24 h; activity change, negative = cytotoxicity: at 46 µM (top of the series)
In short: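 A549 ARE_Fluc cells in 5% FBS OPTI-MEM were exposed to compounds in concentration-response for 18-24 h at 37 deg C. Viability was read by CellTiter-Fluor fluorescence (Ex 405/Em 525) after 30 min, before the luciferase read.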
On the % scale 0 is the no-effect control and ±100 the full control effect; potency means the concentration at half of the fitted maximal effect.

Structure (SMILES)	Potency	activity change, negative = cytotoxicity
Cc1ccc(S(=O)(=O)NCCC(c2ccc(F)cc2)c2ccco2)cc1 (stereo not given)	inconclusive: 32.6 µM [falling, partial curve, poor fit]	–
Cc1cccc(NC(=O)c2oc3c(c2C)-c2[nH]ncc2CC3)c1C	inconclusive: 29.1 µM [falling, partial curve, poor fit]	–
Oc1c(C(c2ccccc2F)N2CCOCC2)sc2nc(-c3ccco3)nn12 (stereo not given)	–	inactive: -12.8%
COC(=O)c1ccc(NC(=O)CCc2c(C)nc3c(c(C)nn3-c3ccc(C)cc3)c2C)cc1	inconclusive: 32.6 µM [falling, partial curve, poor fit]	–
COc1ccc(-c2c(C)nn3c(-c4ccccc4)cc(C)nc23)cc1	–	inactive: -10.2%
N#C/C(=C\c1ccccn1)c1ccccn1	–	inactive: -2.43%
Cc1sc2nc(SCC(=O)NCc3ccco3)n(CCc3ccccc3)c(=O)c2c1C	inconclusive: 32.6 µM [falling, partial curve, poor fit]	–
CCC1CC=CC2C1C(=O)N(Cc1ccccc1)C2c1ccoc1 (stereo not given)	inconclusive: 18.4 µM [falling, single point]	–
CCOc1ccccc1-n1c(C)nc2cc(C(=O)O)ccc21	inconclusive: 5.17 µM [activator, partial curve, poor fit]	–
CCC(=O)Nc1cccc(C(=O)/C=C/c2ccc(F)cc2)c1	inconclusive: 29.1 µM [falling, single point]	–
CCCCNC(=O)C1CCN(C(=O)N2CC(C)Oc3ccc(Cl)cc32)CC1 (stereo not given)	–	inactive: -19.6%
Cc1c(C(=O)Nc2ccc(-c3nnc4n3CCCCC4)cc2)oc2c1ccc1ccccc12	inconclusive: 23.1 µM [falling, single point]	–
Cc1sc(NC(=O)CN2CCCC2)nc1-c1ccc2c(c1)CCN2C(=O)c1cccc(F)c1	inconclusive: 13 µM [falling, partial curve]	–
Cc1ccc(CCNC(=O)C(CC(C)C)NS(=O)(=O)c2ccc3c(c2)oc(=O)n3C)cc1 (stereo not given)	–	inactive: -1.72%
Cc1ccc(OCC(=O)Nc2ccc(NC(=O)c3ccccc3)cc2)cc1C	–	inactive: 3.78%
O=[N+]([O-])c1ccc2nc(/C=C/c3ccc(Cl)cc3)[nH]c2c1	inconclusive: 29.1 µM [falling, single point]	–
CC(C)Sc1cc(Cl)nc(NC(=O)Nc2ccccc2)n1	–	inactive: 6.22%
CC[C@]12c3[nH]c4ccc(Cl)cc4c3CCN1C(=O)[C@@H](CC(=O)NCc1cccc(C(F)(F)F)c1)C[C@@H]2C(=O)N1CCN(C(=O)C2CC2)CC1	inconclusive: 23.1 µM [falling, single point]	–
COc1cc(CCC(=O)N2CCN(S(=O)(=O)c3ccc(C)cc3)CC2)cc(OC)c1OC	–	inactive: -0.953%
O=C(Cc1ccc(Cl)cc1)Nc1ccccc1Sc1ccccc1	inconclusive: 25.9 µM [activator, partial curve, poor fit]	–
COc1ccc(CNC(=O)CCc2cn(Cc3cc(C)ccc3C)c3ccccc23)cc1OC	–	inactive: -5.01%
CCOc1ccccc1C(=O)N1CCN(c2cccc(Cl)c2)CC1	inconclusive: 0.651 µM [falling, full curve, poor fit]	–
O=C(Nc1nc(-c2nc3ccccc3s2)cs1)c1ccc(S(=O)(=O)N2CCOCC2)cc1	–	inactive: -16.3%
N/C(=N\OC(=O)CC(c1ccccc1)c1ccccc1)c1cccnc1	inconclusive: 18.4 µM [falling, single point]	–

Copied from the entries so far for reference:
Structure (SMILES)	Potency	activity change, negative = cytotoxicity
CCC(=O)Nc1cccc(C(=O)/C=C/c2ccc(F)cc2)c1	inconclusive: 29.1 µM [falling, single point]	–
CCCCNC(=O)C1CCN(C(=O)N2CC(C)Oc3ccc(Cl)cc32)CC1 (stereo not given)	–	inactive: -19.6%
Cc1c(C(=O)Nc2ccc(-c3nnc4n3CCCCC4)cc2)oc2c1ccc1ccccc12	inconclusive: 23.1 µM [falling, single point]	–

Continued:

Structure (SMILES)	Potency	activity change, negative = cytotoxicity
CCOc1ccc(S(=O)(=O)N(CC(=O)Nc2cccnc2)c2ccccc2)cc1	–	inactive: -5.55%
COc1ccc(OC)c(Nc2nc(NCc3ccco3)nc(N)c2[N+](=O)[O-])c1	inconclusive: 29.1 µM [falling, partial curve, poor fit]	–
Cc1ccc(C(C)(C)NC(=O)C2CCC(=O)N(C3CCCCCC3)C2)cc1 (stereo not given)	–	inactive: 0.595%
COc1cc(/C=C2/CC/C(=C/c3ccc(O)c(OC)c3)C2=O)ccc1O	inconclusive: 20.6 µM [falling, single point]	–
COc1nc(OC)nc(Oc2ccc(Cl)cc2[N+](=O)[O-])n1	–	inactive: -1.68%
CC12CCC=CC1C(c1ccc(Br)cc1F)N(Cc1ccccc1)C2=O (stereo not given)	–	inactive: 4.89%
Cc1cc2c(s1)c1cnn(Cc3ccc(SC(F)(F)F)cc3)c(=O)c1n2C	–	inactive: -1.5%
S=C(NCCSCc1ccc(Cl)c(Cl)c1)Nc1ccccc1	–	inactive: -4.72%
COc1cc2[nH]c3c(=O)n(CCN4CCCCC4)cnc3c2cc1OC	inconclusive: 32.6 µM [falling, single point]	–
O=C(Nc1ccccc1N1CCCC1)c1ccc([N+](=O)[O-])o1	inconclusive: 23.1 µM [falling, single point]	–
CCN(CC)S(=O)(=O)c1cccc(C(=O)N/N=C(\C)c2ccc(O)cc2O)c1	inconclusive: 20.6 µM [falling, partial curve, poor fit]	–
CCc1ccc(-n2c(SCc3cc(=O)n4cc(Br)ccc4n3)nc3[nH]ncc3c2=O)cc1	inconclusive: 29.1 µM [falling, single point]	–
COc1ccc(N(C(=O)CNC(=O)c2ccco2)C(C(=O)NC2CCCC2)c2ccc(C)o2)cc1 (stereo not given)	–	inactive: -5.37%
CCC(C)Sc1ccc([C@@H]2[C@@H]3C(=O)N(C)C(=O)[C@@H]3[C@]3(C(=O)OC)CCCCN23)cc1OC (stereo not given in full)	inconclusive: 29.1 µM [activator, partial curve, poor fit]	–
COc1ccc(NC(=O)c2cccnc2)c([N+](=O)[O-])c1	–	inactive: -15.4%
O=C(Nc1ncc(Cc2ccc(Cl)cc2Cl)s1)c1ccc([N+](=O)[O-])cc1	–	inactive: 1.24%
COc1cc(Nc2nc3c(N)cc(C(F)(F)F)cc3nc2-c2ccccc2)cc(OC)c1OC	–	inactive: -0.0952%
COc1ccc(CNc2nc(S(=O)(=O)c3ccccc3)c(Cl)s2)cc1OC	–	inactive: -21.5%
Cc1ccc(C(=O)c2coc3cc([N+](=O)[O-])c(O)c([N+](=O)[O-])c23)cc1	active: 20.6 µM	–
COCCNC(=O)c1c(N)n(-c2ccccc2)c2nc3ccccc3nc12	inconclusive: 20.6 µM [activator, partial curve]	–
CC(CCCC(C)(C)O)NC(=O)c1cc(COc2ccc3ncccc3c2)on1 (stereo not given)	inconclusive: 3.66 µM [falling, partial curve, poor fit]	–
Cc1ccc(C(=O)c2c(C)oc3c2C(=O)C(=O)c2ccccc2-3)cc1	inconclusive: 14.6 µM [falling, partial curve, poor fit]	–
O=C1CN(c2nc(-c3cccs3)nc3sc4c(c23)CCCC4)CCN1	–	inactive: -2.54%
CCOC(=O)N1CCN(C(=O)C2CCCN(S(=O)(=O)c3cc(C)ccc3OC)C2)CC1 (stereo not given)	–	inactive: -2.8%

Structure (SMILES)	Potency	activity change, negative = cytotoxicity
O=C(CSc1nccn1-c1cccc(Cl)c1)Nc1cccc(C(F)(F)F)c1	–	inactive: -8.17%
CCn1c(=N)c(C(=O)NCC2CCCO2)cc2c(=O)n3cc(C)ccc3nc21 (stereo not given)	inconclusive: 10.3 µM [activator, partial curve, poor fit]	–
Cc1ccc(C)c(S(=O)(=O)N2CCN(C(=O)C3CCN(c4ncnc5sc(C)c(C)c45)CC3)CC2)c1	inconclusive: 16.4 µM [falling, partial curve, poor fit]	–
CCc1ccc(-c2cc(C)no2)cc1S(=O)(=O)Nc1cc(OC)c(OC)c(OC)c1	–	inactive: 4.55%
CNC(=O)c1cc(Oc2ccc(NC(=O)Nc3ccc(Cl)c(C(F)(F)F)c3)cc2)ccn1	inconclusive: 32.6 µM [falling, partial curve, poor fit]	–
Cc1ccc2cc(CN(Cc3ccco3)C(=O)C3CCCCC3)c(=O)[nH]c2c1C	–	inactive: -8.1%
C=CCNC(=O)CSc1nc2cc(C(=O)OCC)ccc2n1CC	inconclusive: 29.1 µM [activator, partial curve, poor fit]	–
Cn1c2ccccc2c2c(C(=O)NCc3ccco3)cn(C3CCCCC3)c(=O)c21	–	inactive: -9.53%
CCN(CC)c1ccc(/C=N/n2c(=S)[nH]nc(C)c2=O)cc1	inconclusive: 23.1 µM [falling, partial curve, poor fit]	–
CC1(C)CC(=O)C(Sc2ccccc2[N+](=O)[O-])=C(O)C1	inconclusive: 11.6 µM [falling, partial curve, poor fit]	–
Cn1cnc([N+](=O)[O-])c1Oc1ccc2ccccc2c1	inconclusive: 14.6 µM [falling, single point]	–
CCOc1ccccc1C(=O)N1CC(=O)Nc2ccc(C)cc2C1c1ccccc1 (stereo not given)	–	inactive: 0.69%
CCN1CCCC1CNc1ncnc2c1[nH]c1ccc(Cl)cc12 (stereo not given)	inconclusive: 20.6 µM [activator, partial curve, poor fit]	–
O=c1oc2ccccc2cc1-c1nc2c(s1)CCCC2	–	inactive: 29.1%
Cc1ccc(CNc2ncnc3onc(C)c23)cc1	–	inactive: -1.98%
O=C(CSc1nc2ccccc2nc1Cc1ccccc1F)Nc1cccc(C(F)(F)F)c1	–	inactive: -14.5%
COc1ccc(-c2cc(C(F)(F)F)nc(SCC(=O)NCc3cccs3)n2)cc1OC	–	inactive: -8.06%
COc1ccc(-c2onc(C)c2C)cc1S(=O)(=O)Nc1cc(Cl)ccc1C	inconclusive: 13 µM [falling, partial curve]	–
COc1ccccc1N1CCN(C2CCN(S(=O)(=O)c3ccc4ccccc4c3)CC2)CC1	inconclusive: 29.1 µM [falling, partial curve, poor fit]	–
COC(=O)c1ccc(COc2ccccc2/C=C(\C#N)C(=O)Nc2c(C)cc(C)cc2C)cc1	inconclusive: 29.1 µM [falling, partial curve, poor fit]	–
CC1CCC2(CC1)OCC1(CCC3(COC4(CCC(C)CC4)OC3)C1=O)CO2 (stereo not given)	–	inactive: 2.85%
C=CCOC(=O)c1sc(NC(=O)c2ccc(OC)cc2)nc1C	inconclusive: 0.0041 µM [falling, full curve, poor fit]	–
